{
  "source": "the supplement of paper PMC10338343",
  "key": {"[1]": {"test_system": "MILI (PIWIL2) piRISC loaded with L1MC piRNA (26 nt)", "experiment": "pre-steady-state target cleavage rate (min^-1); higher = faster piRNA-guided slicing of the target", "settings": "guide: L1MC piRNA 5'p-UAACUAAAUACUAUGCAAGCUGUAGG", "summary_of_the_method": "(§1)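 A burst-and-steady-state fit was used to obtain the pre-steady-state cleavage rate. The input data were sequencing reads of uncleaved targets, normalised to depth and to weakly complementary targets, from a […] transcribed, DNA-blocked target RNA library mixed with 1 nM active affinity-purified piRISC holding one synthetic guide, with or without 500 nM GTSF1 partner protein, in HEPES–potassium acetate buffer at 33 °C for 0–8 or 0–960 min. Three trials were pooled and k3 was capped at 0.0001 min^-1.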"}, "[2]": {"test_system": "MIWI (PIWIL1) piRISC loaded with L1MC piRNA (30 nt)", "experiment": "pre-steady-state target cleavage rate (min^-1); higher = faster piRNA-guided slicing of the target", "settings": "guide: L1MC piRNA 5'p-UAACUAAAUACUAUGCAAGCUGUAGGUCCU", "summary_of_the_method": "as §1"}, "[3]": {"test_system": "EfPiwi piRISC loaded with L1MC piRNA (26 nt)", "experiment": "pre-steady-state target cleavage rate (min^-1); guide: L1MC piRNA 5'p-UAACUAAAUACUAUGCAAGCUGUAGG; MIWI and MILI are mouse PIWI proteins and EfPiwi is from a freshwater sponge; tags in brackets are library labels; higher = faster piRNA-guided slicing of the target", "summary_of_the_method": "as §1"}, "[4]": {"settings": "auxiliary factor: 500 nM mouse GTSF1"}, "[5]": {"settings": "auxiliary factor: none (no GTSF1)"}, "[6]": {"settings": "auxiliary factor: 500 nM Ephydatia muelleri Gtsf1"}, "[7]": {"settings": "auxiliary factor: none (no Gtsf1)"}},
  "note": "± gives the standard deviation. This is a selection; strong and weak results do not stand in their true shares. The uncertainty is large for many entries. The list shows a part of the results.",
  "data": [
    {"sequence": "UCCUGGAUGUCGAUGCAUAGUUUUUUGUUA", "values": [
      {"measurement": "pre-steady-state target cleavage rate", "setting": "[1]; [4]", "result": "0.00354 ± 0.0051"},
      {"measurement": "pre-steady-state target cleavage rate", "setting": "[1]; [5]", "result": "0.00241 ± 0.0033"},
      {"measurement": "pre-steady-state target cleavage rate", "setting": "[2]; [4]", "result": "0.000567 ± 0.015"},
      {"measurement": "pre-steady-state target cleavage rate", "setting": "[3]; [6]", "result": "0.000173 ± 0.03"}
    ]},
    {"sequence": "UCCUGGAUGUCGUUGCAUAGUAUUUGUUA", "values": [
      {"measurement": "pre-steady-state target cleavage rate", "setting": "[1]; [4]", "result": "0.00365 ± 0.0039"},
      {"measurement": "pre-steady-state target cleavage rate", "setting": "[1]; [5]", "result": "0.00068 ± 0.0076"},
      {"measurement": "pre-steady-state target cleavage rate", "setting": "[2]; [5]", "result": "0.000658 ± 0.009"},
      {"measurement": "pre-steady-state target cleavage rate", "setting": "[3]; [6]", "result": "0.000242 ± 0.014"}
    ]},
    {"sequence": "UCCUGGAACAGGAAGCAUAGUAUUUAGUUA", "values": [
      {"measurement": "pre-steady-state target cleavage rate", "setting": "[1]; [4]", "result": "0.199 ± 0.016"},
      {"measurement": "pre-steady-state target cleavage rate", "setting": "[1]; [5]", "result": "0.00491 ± 0.0024"},
      {"measurement": "pre-steady-state target cleavage rate", "setting": "[2]; [5]", "result": "0.00179 ± 0.0025"},
      {"measurement": "pre-steady-state target cleavage rate", "setting": "[3]; [7]", "result": "0.000506 ± 0.013"}
    ]},
    {"sequence": "UCCUGGAUGAGCUUCCAUUGUAUUUAGUUA", "values": [
      {"measurement": "pre-steady-state target cleavage rate", "setting": "[1]; [4]", "result": "0.0518 ± 0.016"},
      {"measurement": "pre-steady-state target cleavage rate", "setting": "[1]; [5]", "result": "0.00121 ± 0.0054"},
      {"measurement": "pre-steady-state target cleavage rate", "setting": "[2]; [5]", "result": "0.000896 ± 0.0068"},
      {"measurement": "pre-steady-state target cleavage rate", "setting": "[3]; [6]", "result": "0.00132 ± 0.0031"}
    ]},
    {"sequence": "UCCUGGAUGUCGAAGGAUAGUUUUUAGUUA", "values": [
      {"measurement": "pre-steady-state target cleavage rate", "setting": "[1]; [4]", "result": "0.000282 ± 0.016"},
      {"measurement": "pre-steady-state target cleavage rate", "setting": "[1]; [5]", "result": "0.000216 ± 0.02"},
      {"measurement": "pre-steady-state target cleavage rate", "setting": "[2]; [4]", "result": "0.000172 ± 0.029"},
      {"measurement": "pre-steady-state target cleavage rate", "setting": "[3]; [6]", "result": "< 0.0001"}
    ]},
    {"sequence": "UCCUGGUACAGCUUGCAAAGUAUUUUCAAA", "values": [
      {"measurement": "pre-steady-state target cleavage rate", "setting": "[1]; [4]", "result": "0.0283 ± 0.012"},
      {"measurement": "pre-steady-state target cleavage rate", "setting": "[1]; [5]", "result": "0.00161 ± 0.0049"},
      {"measurement": "pre-steady-state target cleavage rate", "setting": "[2]; [5]", "result": "0.00268 ± 0.0036"},
      {"measurement": "pre-steady-state target cleavage rate", "setting": "[3]; [6]", "result": "0.00424 ± 0.0036"}
    ]},
    {"sequence": "UCCUGCUACAGGAUGCAUAGUAUUUAGAAA", "values": [
      {"measurement": "pre-steady-state target cleavage rate", "setting": "[1]; [4]", "result": "0.0163 ± 0.0074"},
      {"measurement": "pre-steady-state target cleavage rate", "setting": "[1]; [5]", "result": "0.00123 ± 0.0035"},
      {"measurement": "pre-steady-state target cleavage rate", "setting": "[2]; [5]", "result": "0.00113 ± 0.0035"},
      {"measurement": "pre-steady-state target cleavage rate", "setting": "[3]; [6]", "result": "0.00248 ± 0.0014"}
    ]},
    {"sequence": "UCCUGGAUGUCGAUGCAUGUAUUUAGUUA", "values": [
      {"measurement": "pre-steady-state target cleavage rate", "setting": "[1]; [4]", "result": "0.00101 ± 0.0084"},
      {"measurement": "pre-steady-state target cleavage rate", "setting": "[1]; [5]", "result": "0.000583 ± 0.0076"},
      {"measurement": "pre-steady-state target cleavage rate", "setting": "[2]; [5]", "result": "0.000966 ± 0.0055"},
      {"measurement": "pre-steady-state target cleavage rate", "setting": "[3]; [6]", "result": "0.00109 ± 0.0065"}
    ]},
    {"sequence": "UCCUGGAACAGCUUGCAUAGUAAAUAGAAA", "values": [
      {"measurement": "pre-steady-state target cleavage rate", "setting": "[1]; [4]", "result": "0.0493 ± 0.016"},
      {"measurement": "pre-steady-state target cleavage rate", "setting": "[1]; [5]", "result": "0.000955 ± 0.0057"},
      {"measurement": "pre-steady-state target cleavage rate", "setting": "[2]; [5]", "result": "0.00124 ± 0.0045"},
      {"measurement": "pre-steady-state target cleavage rate", "setting": "[3]; [6]", "result": "0.00337 ± 0.0028"}
    ]},
    {"sequence": "UCCUCCUACACCUUGCAUAGUAUUUUCAAA", "values": [
      {"measurement": "pre-steady-state target cleavage rate", "setting": "[1]; [4]", "result": "0.0721 ± 0.021"},
      {"measurement": "pre-steady-state target cleavage rate", "setting": "[1]; [5]", "result": "0.00114 ± 0.0044"},
      {"measurement": "pre-steady-state target cleavage rate", "setting": "[2]; [5]", "result": "0.00181 ± 0.0026"},
      {"measurement": "pre-steady-state target cleavage rate", "setting": "[3]; [6]", "result": "0.00277 ± 0.003"}
    ]},
    {"sequence": "UCCUGGAUCAGCUUGGAUAGUAUUUAGAAA", "values": [
      {"measurement": "pre-steady-state target cleavage rate", "setting": "[1]; [4]", "result": "0.0109 ± 0.0051"},
      {"measurement": "pre-steady-state target cleavage rate", "setting": "[1]; [5]", "result": "0.000731 ± 0.0065"},
      {"measurement": "pre-steady-state target cleavage rate", "setting": "[2]; [5]", "result": "0.00309 ± 0.0042"},
      {"measurement": "pre-steady-state target cleavage rate", "setting": "[3]; [6]", "result": "0.00249 ± 0.0024"}
    ]},
    {"sequence": "UCCUGGAUGUCGAAGCAUAGUAUUAAGUAA", "values": [
      {"measurement": "pre-steady-state target cleavage rate", "setting": "[1]; [4]", "result": "0.0172 ± 0.0065"},
      {"measurement": "pre-steady-state target cleavage rate", "setting": "[1]; [5]", "result": "0.000612 ± 0.0085"},
      {"measurement": "pre-steady-state target cleavage rate", "setting": "[2]; [5]", "result": "0.000552 ± 0.011"},
      {"measurement": "pre-steady-state target cleavage rate", "setting": "[3]; [7]", "result": "0.000571 ± 0.013"}
    ]}
  ]
}
